No constants are given. Whether binding was seen depends on the method and setting. In cells and extracts the contact can be indirect. Some entries that bind do so weakly or less than the wild type. For some of these results: Sequences can lack the tags named with a protein.

Protein sequences, listed by entry. Tags and fused reporters are not part of them.
UniProt B1AY13: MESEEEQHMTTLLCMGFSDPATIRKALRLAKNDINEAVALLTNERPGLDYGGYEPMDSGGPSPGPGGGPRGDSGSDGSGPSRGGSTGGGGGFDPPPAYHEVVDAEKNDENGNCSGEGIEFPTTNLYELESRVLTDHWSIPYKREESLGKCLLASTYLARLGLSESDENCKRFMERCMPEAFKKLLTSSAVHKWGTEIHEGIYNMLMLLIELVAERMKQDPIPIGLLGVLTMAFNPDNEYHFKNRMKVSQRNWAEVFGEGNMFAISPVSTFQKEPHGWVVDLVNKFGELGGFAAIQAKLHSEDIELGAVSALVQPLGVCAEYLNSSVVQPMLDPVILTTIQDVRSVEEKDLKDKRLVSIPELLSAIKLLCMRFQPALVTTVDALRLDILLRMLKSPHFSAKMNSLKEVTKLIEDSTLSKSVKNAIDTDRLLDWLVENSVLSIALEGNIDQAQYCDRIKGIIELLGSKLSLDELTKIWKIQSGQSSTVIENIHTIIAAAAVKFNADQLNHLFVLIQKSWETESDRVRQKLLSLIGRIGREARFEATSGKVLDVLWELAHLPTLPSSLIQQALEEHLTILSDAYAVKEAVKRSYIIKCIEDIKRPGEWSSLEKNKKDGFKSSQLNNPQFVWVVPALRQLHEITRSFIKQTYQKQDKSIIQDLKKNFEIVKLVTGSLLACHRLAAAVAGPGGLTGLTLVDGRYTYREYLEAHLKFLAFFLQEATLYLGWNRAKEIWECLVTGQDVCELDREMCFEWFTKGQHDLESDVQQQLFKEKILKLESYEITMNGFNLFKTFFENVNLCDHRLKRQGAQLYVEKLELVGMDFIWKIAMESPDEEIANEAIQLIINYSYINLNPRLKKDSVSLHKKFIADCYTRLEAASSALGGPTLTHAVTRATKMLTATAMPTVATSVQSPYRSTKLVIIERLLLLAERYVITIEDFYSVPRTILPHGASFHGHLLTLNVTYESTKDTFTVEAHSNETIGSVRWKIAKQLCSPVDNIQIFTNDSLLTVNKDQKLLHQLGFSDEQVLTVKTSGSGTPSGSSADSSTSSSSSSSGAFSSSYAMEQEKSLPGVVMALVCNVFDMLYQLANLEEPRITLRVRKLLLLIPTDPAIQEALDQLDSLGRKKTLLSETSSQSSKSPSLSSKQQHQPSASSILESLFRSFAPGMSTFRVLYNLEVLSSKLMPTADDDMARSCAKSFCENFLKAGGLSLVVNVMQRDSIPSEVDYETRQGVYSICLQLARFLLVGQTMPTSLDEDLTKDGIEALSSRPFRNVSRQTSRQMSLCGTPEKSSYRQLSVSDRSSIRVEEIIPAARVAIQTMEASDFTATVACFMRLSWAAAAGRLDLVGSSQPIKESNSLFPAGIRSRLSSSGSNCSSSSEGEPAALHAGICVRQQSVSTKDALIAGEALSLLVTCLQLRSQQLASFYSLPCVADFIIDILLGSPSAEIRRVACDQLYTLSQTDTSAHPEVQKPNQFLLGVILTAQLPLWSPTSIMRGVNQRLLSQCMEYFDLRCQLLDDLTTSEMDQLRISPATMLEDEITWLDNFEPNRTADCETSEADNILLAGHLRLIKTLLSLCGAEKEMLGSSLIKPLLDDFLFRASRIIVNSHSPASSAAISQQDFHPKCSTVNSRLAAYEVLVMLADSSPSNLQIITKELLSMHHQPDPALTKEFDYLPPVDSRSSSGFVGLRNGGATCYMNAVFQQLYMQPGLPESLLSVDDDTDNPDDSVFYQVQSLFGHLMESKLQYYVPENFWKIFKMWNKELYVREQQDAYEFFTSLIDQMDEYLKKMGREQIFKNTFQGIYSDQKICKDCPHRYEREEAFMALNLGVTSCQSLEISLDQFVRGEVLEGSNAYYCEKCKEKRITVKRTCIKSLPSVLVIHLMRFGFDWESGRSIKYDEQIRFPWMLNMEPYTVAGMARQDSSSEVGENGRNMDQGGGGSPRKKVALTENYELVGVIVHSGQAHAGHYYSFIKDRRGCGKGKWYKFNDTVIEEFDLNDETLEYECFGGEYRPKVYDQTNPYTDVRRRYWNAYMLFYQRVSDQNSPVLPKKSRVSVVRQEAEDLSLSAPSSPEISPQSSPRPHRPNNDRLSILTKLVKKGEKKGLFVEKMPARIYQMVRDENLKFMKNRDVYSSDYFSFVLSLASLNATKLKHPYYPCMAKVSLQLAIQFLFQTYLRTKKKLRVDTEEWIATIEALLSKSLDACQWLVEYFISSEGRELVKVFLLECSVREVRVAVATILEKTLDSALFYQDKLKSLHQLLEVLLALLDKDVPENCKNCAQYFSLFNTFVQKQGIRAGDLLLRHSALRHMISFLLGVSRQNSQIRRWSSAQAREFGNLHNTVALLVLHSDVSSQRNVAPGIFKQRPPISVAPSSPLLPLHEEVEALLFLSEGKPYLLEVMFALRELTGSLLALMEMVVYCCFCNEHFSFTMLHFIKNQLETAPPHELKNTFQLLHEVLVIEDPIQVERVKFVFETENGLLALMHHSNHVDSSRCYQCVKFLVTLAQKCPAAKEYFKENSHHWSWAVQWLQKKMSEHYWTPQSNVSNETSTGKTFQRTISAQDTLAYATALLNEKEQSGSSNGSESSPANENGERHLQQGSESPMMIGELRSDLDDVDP
UniProt Q9NZ08: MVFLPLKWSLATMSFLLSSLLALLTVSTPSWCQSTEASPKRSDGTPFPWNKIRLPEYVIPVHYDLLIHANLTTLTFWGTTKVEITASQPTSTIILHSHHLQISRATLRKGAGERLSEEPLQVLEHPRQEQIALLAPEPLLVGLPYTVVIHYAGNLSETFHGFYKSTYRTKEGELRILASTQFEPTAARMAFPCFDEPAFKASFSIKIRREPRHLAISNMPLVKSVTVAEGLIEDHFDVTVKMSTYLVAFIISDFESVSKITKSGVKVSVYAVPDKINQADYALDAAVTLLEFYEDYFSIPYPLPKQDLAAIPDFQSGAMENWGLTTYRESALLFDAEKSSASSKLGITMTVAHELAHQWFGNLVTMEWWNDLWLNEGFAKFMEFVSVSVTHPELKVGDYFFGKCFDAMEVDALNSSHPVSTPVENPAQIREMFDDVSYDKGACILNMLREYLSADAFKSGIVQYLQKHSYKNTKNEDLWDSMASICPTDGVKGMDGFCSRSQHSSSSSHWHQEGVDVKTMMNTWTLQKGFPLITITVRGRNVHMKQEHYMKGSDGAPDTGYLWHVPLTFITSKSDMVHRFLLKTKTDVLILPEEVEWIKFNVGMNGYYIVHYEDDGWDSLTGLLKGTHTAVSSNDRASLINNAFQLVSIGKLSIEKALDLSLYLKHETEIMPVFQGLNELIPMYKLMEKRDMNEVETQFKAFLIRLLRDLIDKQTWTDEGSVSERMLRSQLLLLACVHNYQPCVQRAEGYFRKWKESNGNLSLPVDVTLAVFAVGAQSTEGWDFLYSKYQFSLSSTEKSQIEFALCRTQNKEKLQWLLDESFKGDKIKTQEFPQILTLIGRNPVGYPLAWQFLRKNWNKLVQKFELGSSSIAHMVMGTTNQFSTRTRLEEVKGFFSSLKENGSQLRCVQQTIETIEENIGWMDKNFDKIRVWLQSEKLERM

Test [1] has as its target USP24 (UniProt B1AY13). The experiment in a line: co-IP; Supplementary Figs. 2b and 5a-c; cells, constructs and antibodies not told in the text shown; immunoprecipitation is the only interaction method in the methods.
In test [2] the target is T1, USP22 (UniProt Q5DU02).
T1 sequence: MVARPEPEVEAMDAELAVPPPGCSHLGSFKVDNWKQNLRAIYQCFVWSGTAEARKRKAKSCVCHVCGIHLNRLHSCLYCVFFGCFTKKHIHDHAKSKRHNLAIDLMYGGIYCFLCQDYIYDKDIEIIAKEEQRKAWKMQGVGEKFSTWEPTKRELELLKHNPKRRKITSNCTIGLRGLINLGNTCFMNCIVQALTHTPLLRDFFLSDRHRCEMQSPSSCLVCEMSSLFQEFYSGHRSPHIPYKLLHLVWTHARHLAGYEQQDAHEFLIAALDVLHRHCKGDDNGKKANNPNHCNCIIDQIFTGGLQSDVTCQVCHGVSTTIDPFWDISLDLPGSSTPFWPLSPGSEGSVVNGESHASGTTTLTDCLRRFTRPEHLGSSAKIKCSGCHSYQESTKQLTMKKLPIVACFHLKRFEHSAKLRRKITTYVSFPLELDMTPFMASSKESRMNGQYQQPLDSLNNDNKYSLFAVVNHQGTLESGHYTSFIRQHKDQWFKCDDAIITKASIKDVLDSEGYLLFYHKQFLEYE
Described as above.

For test [3], the target named is T2, Flag-USP47 (Ubiquitin-Specific Protease 47) (UniProt Q96K76).
T2 sequence: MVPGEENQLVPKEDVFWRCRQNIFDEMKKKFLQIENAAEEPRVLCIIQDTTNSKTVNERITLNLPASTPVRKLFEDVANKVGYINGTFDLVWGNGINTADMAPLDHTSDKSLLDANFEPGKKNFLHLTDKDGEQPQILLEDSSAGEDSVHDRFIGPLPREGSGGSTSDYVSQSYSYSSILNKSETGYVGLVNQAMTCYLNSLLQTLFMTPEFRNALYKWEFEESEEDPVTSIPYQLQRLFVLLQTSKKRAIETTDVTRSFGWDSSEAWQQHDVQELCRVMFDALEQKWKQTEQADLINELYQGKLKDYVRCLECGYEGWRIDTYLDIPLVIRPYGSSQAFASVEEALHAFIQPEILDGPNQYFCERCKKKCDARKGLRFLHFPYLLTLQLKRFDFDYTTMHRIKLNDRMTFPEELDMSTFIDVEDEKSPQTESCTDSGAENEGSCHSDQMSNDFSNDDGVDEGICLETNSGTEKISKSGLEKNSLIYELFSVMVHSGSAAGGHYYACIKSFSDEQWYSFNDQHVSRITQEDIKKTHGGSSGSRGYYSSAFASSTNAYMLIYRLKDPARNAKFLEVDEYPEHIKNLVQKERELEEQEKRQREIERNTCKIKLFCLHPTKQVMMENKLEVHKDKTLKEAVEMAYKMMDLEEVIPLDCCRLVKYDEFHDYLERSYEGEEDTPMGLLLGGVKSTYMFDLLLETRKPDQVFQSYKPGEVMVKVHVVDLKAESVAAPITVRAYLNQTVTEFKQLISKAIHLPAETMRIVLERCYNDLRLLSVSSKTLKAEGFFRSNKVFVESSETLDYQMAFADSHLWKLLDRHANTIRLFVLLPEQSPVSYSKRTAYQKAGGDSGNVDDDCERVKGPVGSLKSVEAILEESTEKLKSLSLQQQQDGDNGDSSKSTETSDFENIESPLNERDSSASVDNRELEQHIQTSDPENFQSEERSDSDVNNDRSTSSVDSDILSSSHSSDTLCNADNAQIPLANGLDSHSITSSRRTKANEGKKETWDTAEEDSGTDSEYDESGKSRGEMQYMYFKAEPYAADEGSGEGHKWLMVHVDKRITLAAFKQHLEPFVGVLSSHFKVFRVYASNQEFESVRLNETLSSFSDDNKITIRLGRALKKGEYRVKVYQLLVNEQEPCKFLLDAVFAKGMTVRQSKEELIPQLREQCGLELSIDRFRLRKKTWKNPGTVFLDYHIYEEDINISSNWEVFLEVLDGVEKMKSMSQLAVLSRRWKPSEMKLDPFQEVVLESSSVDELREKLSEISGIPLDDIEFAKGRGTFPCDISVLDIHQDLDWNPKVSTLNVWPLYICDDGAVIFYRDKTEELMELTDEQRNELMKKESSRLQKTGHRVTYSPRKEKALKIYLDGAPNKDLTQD
The test can be described thus: co-IP; MEFs transfected with ERAP1 and/or Flag-USP47; whole-cell extracts in Triton Buffer (50 mM Tris-HCl pH 7.5, 250 mM sodium chloride, 50 mM sodium fluoride, 1 mM EDTA pH 8, 0.1% Triton); antibody overnight at 4 °C, Protein G- or Protein A-agarose beads, five washes, immunoblot; for Flag-USP47 with βTrCP also increasing amounts of ERAP1, Leu-SH for 24 h, or shERAP1.

Test [4] concerns the target T3, endogenous USP47 (Ubiquitin-Specific Protease 47) (mouse (endogenous in MEFs)) (UniProt Q8BY87).
T3 sequence: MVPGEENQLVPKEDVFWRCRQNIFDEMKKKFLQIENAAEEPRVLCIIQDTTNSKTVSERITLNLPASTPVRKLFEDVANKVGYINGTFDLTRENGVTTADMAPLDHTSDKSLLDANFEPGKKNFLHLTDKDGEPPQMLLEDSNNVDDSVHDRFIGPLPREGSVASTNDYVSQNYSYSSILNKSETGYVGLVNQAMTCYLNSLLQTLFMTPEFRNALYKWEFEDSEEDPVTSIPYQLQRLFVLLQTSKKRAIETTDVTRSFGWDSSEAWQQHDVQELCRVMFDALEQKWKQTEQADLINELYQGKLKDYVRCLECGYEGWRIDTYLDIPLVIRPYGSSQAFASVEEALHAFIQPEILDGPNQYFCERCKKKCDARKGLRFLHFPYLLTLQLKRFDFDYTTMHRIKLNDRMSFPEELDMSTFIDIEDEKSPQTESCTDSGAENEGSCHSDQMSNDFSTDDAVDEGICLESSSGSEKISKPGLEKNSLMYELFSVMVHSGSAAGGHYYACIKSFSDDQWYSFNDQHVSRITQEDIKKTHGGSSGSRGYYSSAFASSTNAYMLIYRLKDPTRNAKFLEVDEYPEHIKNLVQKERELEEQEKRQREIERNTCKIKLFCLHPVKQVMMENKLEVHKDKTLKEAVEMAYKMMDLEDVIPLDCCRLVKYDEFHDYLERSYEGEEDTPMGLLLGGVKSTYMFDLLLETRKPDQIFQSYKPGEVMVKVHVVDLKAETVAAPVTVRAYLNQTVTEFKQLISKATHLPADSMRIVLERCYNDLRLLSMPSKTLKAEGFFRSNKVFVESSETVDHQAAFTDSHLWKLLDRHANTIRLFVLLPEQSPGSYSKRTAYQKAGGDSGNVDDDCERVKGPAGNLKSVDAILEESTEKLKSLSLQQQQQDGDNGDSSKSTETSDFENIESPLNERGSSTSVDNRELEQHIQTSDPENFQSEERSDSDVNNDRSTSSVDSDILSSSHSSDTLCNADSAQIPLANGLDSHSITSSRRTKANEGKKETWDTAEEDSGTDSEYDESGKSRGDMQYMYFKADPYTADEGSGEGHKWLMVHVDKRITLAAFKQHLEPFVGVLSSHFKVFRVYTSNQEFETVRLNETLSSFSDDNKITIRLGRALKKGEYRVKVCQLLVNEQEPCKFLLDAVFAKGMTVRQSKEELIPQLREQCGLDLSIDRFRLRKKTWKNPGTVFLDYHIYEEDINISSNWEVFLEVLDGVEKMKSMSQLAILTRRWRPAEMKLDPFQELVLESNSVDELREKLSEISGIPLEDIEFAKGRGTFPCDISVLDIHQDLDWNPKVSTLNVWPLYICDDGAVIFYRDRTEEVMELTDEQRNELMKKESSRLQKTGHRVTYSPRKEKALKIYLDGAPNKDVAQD
The test is described as above.

For the substance “endoplasmic reticulum aminopeptidase 1 (ERAP1) (from UniProt Q9NZ08 1-941) (enzyme)”, the binding result is “no binding” in test [1], “no binding” in test [2], “binds” in test [3] and “binds” in test [4].

(Values after PMC6656771.)
